Laboratory results: PubChem BioAssay AID743454 (Peter MacCallum Cancer Centre, 2014)
The whole screen tested about 18,000 reagents; this is an unselected part. Over the whole deposit, 450 (2.5%) got an active call. 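Single biological run; no consistent viability z cut-off exists, so the class columns, not z-scores, define the calls.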 No sequences are given here.

- Assay: 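Search for knock-downs that restore vorinostat killing in resistant colon cancer cells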 (primary screen)
- Cell system: human HCT116-VR colon cancer cells, selected for vorinostat resistance
- Reagents: siRNA pool against human genes, 40 nM siRNA pool
- Timing: vorinostat for 24 h, read-out about 72 h after transfection
- Conditions: vorinostat at 2.5 µM final
- Measurement: 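Two measures, CellTiter-Fluor viability and luminescent caspase 3/7 activity, each as fold change against same-plate mock wells, mean of duplicates, then screen-wide robust z-score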
- Direction: viability robust z-score: higher = more viable cells than screen typical; caspase robust z-score: higher = more caspase 3/7 activity than screen typical
- Hit rule: 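a knock-down is a hit when classed RV1 or RV2 for lowered viability, or CA1 or CA2 for caspase activation; those lethal without drug were dropped; hits were retested singly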

| target gene | viability hit class | caspase hit class | viability robust z-score | caspase robust z-score | Call |
| --- | --- | --- | --- | --- | --- |
| DOCK11 (GeneID 139818) | no change | no change | -1.65 | 1.84 | inactive |
| HOATZ (GeneID 399949) | no change | no change | 0.48 | -0.58 | inactive |
| TIPRL (GeneID 261726) | no change | no change | 1.06 | -0.9 | inactive |
| OR5H2 (GeneID 79310) | no change | no change | 0.65 | -0.52 | inactive |
| CLCN4 (GeneID 1183) | no change | no change | 0.34 | -0.19 | inactive |
| HBQ1 (GeneID 3049) | no change | no change | -0.18 | 1.98 | inactive |
| HERC5 (GeneID 51191) | no change | no change | -1.34 | 1.33 | inactive |
| ZDHHC16 (GeneID 84287) | no change | no change | -0.45 | 3.26 | inactive |
| NOXRED1 (GeneID 122945) | no change | no change | 0.34 | -0.37 | inactive |
| NSA2 (GeneID 10412) | no change | no change | -4.64 | 1.5 | inactive |
| CEP44 (GeneID 80817) | no change | CA1 (caspase activation) | 0.97 | 5.92 | active |
| RALB (GeneID 5899) | no change | no change | -4.42 | -1.25 | inactive |
| ARRDC1 (GeneID 92714) | no change | no change | -0.58 | -0.32 | inactive |
| ELMOD3 (GeneID 84173) | no change | no change | -0.06 | -0.59 | inactive |
| PRMT1 (GeneID 3276) | no change | no change | -1.22 | 1.33 | inactive |
| HTR5A (GeneID 3361) | no change | no change | 0.35 | -0.76 | inactive |
| TMEM88 (GeneID 92162) | no change | no change | -0.04 | 1.79 | inactive |
| CBLN2 (GeneID 147381) | no change | no change | -1.5 | 0.75 | inactive |
| MICALL1 (GeneID 85377) | no change | no change | 0.79 | -0.69 | inactive |
| PEX11G (GeneID 92960) | no change | no change | -0.2 | 0.57 | inactive |
| PTTG1 (GeneID 9232) | no change | no change | 0.7 | -0.32 | inactive |
| PIEZO2 (GeneID 63895) | no change | no change | -1.36 | -0.68 | inactive |
| FBXL3 (GeneID 26224) | no change | no change | -0.21 | 0.9 | inactive |
| PCGF3 (GeneID 10336) | no change | no change | -2.71 | 0.47 | inactive |
| TEPSIN (GeneID 146705) | no change | no change | 0.94 | 1.77 | inactive |
| GRIA3 (GeneID 2892) | no change | no change | -0.16 | 1.56 | inactive |
| COMMD1 (GeneID 150684) | no change | no change | 0.19 | -0.02 | inactive |
| KCNJ5-AS1 (GeneID 219833) | no change | no change | 0.02 | -0.98 | inactive |
| PHF13 (GeneID 148479) | no change | no change | 0.61 | 1 | inactive |
| OGFOD2 (GeneID 79676) | no change | no change | 0.3 | 0.09 | inactive |
| PSMD10 (GeneID 5716) | no change | no change | -0.14 | 3.72 | inactive |
| CFAP77 (GeneID 389799) | no change | no change | -0.4 | 0.56 | inactive |
| H4C16 (GeneID 121504) | no change | no change | -0.74 | -0.57 | inactive |
| NAA10 (GeneID 8260) | no change | no change | -1.29 | -0.5 | inactive |
| TRIML2 (GeneID 205860) | no change | no change | -1.46 | 1.25 | inactive |
| SERTAD1 (GeneID 29950) | no change | CA2 (caspase activation) | -2.25 | 5.73 | active |
| GPR37 (GeneID 2861) | no change | no change | 0.06 | -1.2 | inactive |
| DEFB104B (GeneID 503618) | no change | no change | -1.56 | -0.72 | inactive |
| CAVIN1 (GeneID 284119) | no change | no change | 0.93 | -0.47 | inactive |
| BIVM (GeneID 54841) | no change | no change | 0.28 | 0.06 | inactive |
| ALCAM (GeneID 214) | no change | no change | -0.43 | 0.71 | inactive |
| SCTR (GeneID 6344) | no change | no change | -1.12 | -0.27 | inactive |
| FABP1 (GeneID 2168) | no change | no change | 0.85 | -0.8 | inactive |
| CEBPA (GeneID 1050) | no change | no change | 0.1 | 0.47 | inactive |
| JAKMIP1 (GeneID 152789) | no change | no change | 0.09 | -0.8 | inactive |
| GRPR (GeneID 2925) | no change | no change | -0.88 | -0.64 | inactive |
| TBC1D8B (GeneID 54885) | no change | no change | 0.34 | 1.01 | inactive |
| EVC (GeneID 2121) | no change | no change | -0.53 | 0.28 | inactive |
| IFIT5 (GeneID 24138) | no change | no change | 0.5 | 0.15 | inactive |
| DNTTIP2 (GeneID 30836) | RV2 (reduced viability) | no change | -2.99 | -1.09 | active |
| BIRC6 (GeneID 57448) | no change | no change | 0.22 | -0.88 | inactive |
| MPO (GeneID 4353) | no change | no change | 1.03 | -0.08 | inactive |
| ZNF599 (GeneID 148103) | no change | no change | 1.39 | -0.6 | inactive |
| JPH1 (GeneID 56704) | no change | no change | -0.83 | 0.92 | inactive |
| IPO11 (GeneID 51194) | no change | no change | 1.53 | -0.08 | inactive |
| MED30 (GeneID 90390) | no change | no change | 0.52 | -0.36 | inactive |
| DAPL1 (GeneID 92196) | no change | no change | -1 | 2.24 | inactive |

3 entries already listed, arranged by “caspase robust z-score”, ascending:
| target gene | viability hit class | caspase hit class | viability robust z-score | caspase robust z-score | Call |
| --- | --- | --- | --- | --- | --- |
| HTR5A (GeneID 3361) | no change | no change | 0.35 | -0.76 | inactive |
| PRMT1 (GeneID 3276) | no change | no change | -1.22 | 1.33 | inactive |
| TMEM88 (GeneID 92162) | no change | no change | -0.04 | 1.79 | inactive |
